Test results as given in patent EP4610267A1, “CYCLIC DINUCLEOTIDES AND CONJUGATES THEREOF WITH ANTIBODIES” (priority 2024, dated 2025).

Experiment: Compound-to-antibody ratio (DAR) of antibody CDN conjugates by LC-MS
Procedure: Antibody CDN-conjugates were analyzed to determine the extent of conjugation. A compound-to-antibody ratio was extrapolated from LC-MS data for reduced samples. LC-MS allows quantitation of the average number of molecules of linker-payload attached to an antibody in a conjugate sample. Mass spectral data enables identification of the component species in the mixture, e.g., LC, LC+1, LC+2, HC, HC+1, HC+2, etc. From the average loading on the LC and HC chains, the average compound to antibody ratio can be calculated for an antibody conjugate. A compound-to-antibody ratio for a given conjugate sample represents the average number of compound (linker-payload) molecules attached to a tetrameric antibody containing two light chains and two heavy chains. The samples were reduced with 40 mM TCEP or 5.5 mM DTT, injected onto a MassPREP Micro Desalting column (20 µm, 5-mm by 2.1-mm ID, Waters) equilibrated in 0.1% formic acid (FA) in H2O and eluted by a fast gradient (4min) to 0.1% FA in acetonitrile. The separation was carried out by AQUITY UPLC I-Class system (Waters) and was on-line coupled to Mass Spectrometer Synapt G2 (Waters) to acquire mass spectra using electrospray ionization in positive mode. The TOF mass range was set from m/z 500 to 4000. The raw spectrum was subtracted and deconvoluted (MaxEnt 1, Waters) to produce the final spectrum. Conjugates were profiled using analytical size-exclusion chromatography on Superdex 200 equilibrated in PBS pH7.4; aggregation was analyzed based on analytical size exclusion chromatography.

[1] = compound conjugated to anti TROP2 mA5 via engineered cysteines (light chain V110C, heavy chain S375C)
[2] = compound conjugated to isotype mAb (Table 19)

Substance	Drug Antibody Ratio [1]	Drug Antibody Ratio [2]
4-((S)-2-((S)-2-(2-(2,5-dioxo-2,5-dihydro-1H-pyrrol-1-yl)acetamido)-3-methylbutanamido)-5-ureidopentanamido)benzyl (2-(((9-((6R,8R,9S,13aR,15R,16R,16aR,17R)-16,17-difluoro-3,11-dimercapto-3,11-dioxido-8-(6-oxo-1,6-dihydro-9H-purin-9-yl)decahydro-6,9-methanofuro[3,2-m][1,3,6,9,12]pentaoxa[2,10]diphosphacyclopentadecin-15-yl)-9H-purin-6-yl)carbamoyl)oxy)ethyl)(methyl)carbamate [Compound 3.3]	3.7	3.8
4-((S)-2-((S)-2-(2-(2,5-dioxo-2,5-dihydro-1H-pyrrol-1-yl)acetamido)-3-methylbutanamido)-5-ureidopentanamido)benzyl (9-((6R,8R,9S,13aR,15R,16R,16aR,17R)-16,17-difluoro-3,11-dimercapto-3,1 1-dioxido-8-(6-oxo-1,6-dihydro-9H-purin-9-yl)decahydro-6,9-methanofuro[3,2-m][1,3,6,9,12]pentaoxa[2,10]diphosphacyclopentadecin-15-yl)-9H-purin-6-yl)carbamate [Compound 3.13]	3.3	3.8
